# Experimental data as given in the supplement of paper PMC3334620.
# The full ranking holds about 33,000 sequences; the median of “E-score (-0.5 to 0.5)” is about -0.0059, and the highest 2% start at about 0.26. The list shows a part of the results.
# Target: T1, Cin5 (UniProt P40917)
# T1 sequence: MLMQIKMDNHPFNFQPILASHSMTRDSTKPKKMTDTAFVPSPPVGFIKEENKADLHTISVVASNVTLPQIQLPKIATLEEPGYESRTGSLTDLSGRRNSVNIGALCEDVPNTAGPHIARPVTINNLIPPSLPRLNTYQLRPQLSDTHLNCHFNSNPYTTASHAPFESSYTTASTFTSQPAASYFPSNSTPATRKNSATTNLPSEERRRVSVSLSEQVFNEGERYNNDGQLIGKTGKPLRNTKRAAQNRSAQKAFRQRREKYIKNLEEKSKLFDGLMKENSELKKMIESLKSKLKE
# Test: PBM E-score (8-mer binding enrichment) (E-score (-0.5 to 0.5)); higher = stronger / more preferred TF binding
# Details: protein concentration: 100 nM; construct: GST-full length
# Procedure: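 Universal 'all 10-mer' protein binding microarrays (Agilent AMADID 015681) probed with GST-tagged S. cerevisiae TFs (full-length or DBD) made by in vitro transcription/translation (PURExpress), about 100-200 nM. Bound TF was detected with fluorescent anti-GST. Each ungapped 8-mer (which stands for itself and its reverse complement) is scored by the PBM enrichment score (E-score), a modified Wilcoxon-Mann-Whitney statistic from -0.5 to +0.5, computed with the Universal PBM Analysis Suite. Scale: above 0.35 generally sequence-specific binding.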
row,Sequence,PBM E-score
1,ATTTCAAC,0.119
2,TCATGCGA,0.0601
3,AAGTTGGG,-0.0183
4,CAGGGAGA,-0.215
5,ACGACGGA,0.234
6,TACCTCTA,-0.00428
7,CTCCGAGA,-0.0521
8,ATTTCGCG,0.208
9,GGAAACTA,-0.105
10,AACTCTGC,-0.124
11,ATGGCTTG,-0.145
12,ATTTACTG,0.219
13,TAACGCTA,-0.0279
14,AACCTGTG,-0.0885
15,AATTGGGA,0.184
16,AACAATGT,-0.0488
17,CGATTCGA,0.191
18,CCGCGCAA,0.0146
19,AATGCCCC,-0.151
20,ACACTAGT,-0.0235
21,AGGTTGTC,-0.236
22,GTTTGCAA,0.172
23,CGACGCTC,-0.00616
24,CTGCACAC,-0.0685
25,ACTCAAGA,0.0188

row,Sequence,PBM E-score
1,ATATTTTC,0.31
2,AAGGCCTC,-0.187
3,ACGCTGTC,-0.164
4,CTACGAGC,-0.108
5,CCTAGTCG,-0.14
6,CTGGGCCC,-0.275
7,AGTAAATA,0.167
8,AACGACCG,-0.155
9,AGATAGCG,0.0377
10,ATCTCTGC,0.0965
11,GAGCTGGA,-0.179
12,GCCAACAC,-0.0241
13,GTGCAGTA,-0.0375
14,CAATCTTC,0.131
15,ATTCCCCC,-0.264
16,ATCTCGTG,-0.0285
17,TGGTTTAA,0.108
18,CACGCCCC,-0.23
19,ATACGCAG,-0.119
20,ATCACTCC,0.00353
21,CGACTGAC,-0.16
22,GATAGCTA,-0.0382
23,GTACCAGA,-0.0805
24,CAAATATC,0.282
25,CCCGTACA,-0.181

row,Sequence,PBM E-score
1,ACGCTTCT,-0.0215
2,GGTGCAGA,-0.255
3,CGGGAGCA,-0.22
4,CACTTTGC,0.00772
5,ATGAACCC,0.0688
6,TATGTCCA,-0.0468
7,GCAGCAAC,-0.0419
8,ATATTGAG,0.266
9,AAGCTAAC,0.185
10,CTCCCTGA,-0.0625
11,CACCAAAG,0.0509
12,CTACCTGA,-0.0989
13,AGACCCAT,0.0321
14,ACGGAGAA,0.0322
15,CCGTCTTC,0.00958
16,AATTGCCT,0.115
17,ATACATCC,0.0774
18,CAATTTCC,0.0938
19,GATGCAGC,0.00311
20,CAACTAGG,0.00319
21,AGCGCTGG,-0.0736
22,AGGCCGAT,-0.119
23,AATCCATT,0.2
24,AACTTCCA,-0.0525
25,ATGATCTC,0.0738

row,Sequence,PBM E-score
1,CAACCGCA,0.0315
2,CACCACCC,-0.0407
3,CGTACTTA,0.16
4,AACTTGGG,0.122
5,GACCGCCA,-0.0859
6,AAGCTCGC,0.0999
7,CGTGAGTA,0.0731
8,AAATAGTC,0.00929
9,GAGAAGGC,-0.245
10,CGAGGTGA,0.0752
11,CACTCCCC,0.0284
12,CCATGGGG,-0.127
13,GGAATCTA,0.143
14,CACTCTGG,-0.127
15,AGCCAATA,-0.00242
16,CGCTGCAC,-0.0572
17,CTGTTAAA,-0.032
18,GCCGTAAC,0.00763
19,ACCAGGGG,-0.265
20,AAATCGAG,-0.031
21,CCATGTAC,-0.109
22,CGGCCTTC,-0.102
23,ACTAATAC,0.26
24,GGTTTGTA,0.0605
25,AAATCCGC,-0.0185

# Copied from the list.
# In PBM E-score, AGCCAATA reads -0.00242
# In PBM E-score, CACTCCCC reads 0.0284
# In PBM E-score, AACTTGGG reads 0.122

# Further entries follow:

row,Sequence,PBM E-score
1,CGGCACAA,-0.0935
2,AGATGTTC,-0.197
3,ACAATTCG,0.12
4,GACCCACA,0.133
5,CCGCCCGA,0.012
6,ATACGAAA,0.265
7,AGACCCTA,-0.164
8,CAAGCCAC,-0.368
9,ATTCAGCG,0.233
10,AAGTCTTC,-0.257
11,AAATACGC,0.144
12,CATTTTTC,0.0702
13,CAGGTATC,-0.0616
14,TCACCACA,0.186
15,ATTACAAA,0.306
16,AACAATAC,0.187
17,ACAAGAGC,-0.0238
18,GTGCGTAA,-0.0141
19,CAGACAGC,-0.0968
20,AATTCCTG,-0.0499
21,ATGTATTG,0.304
22,AATGCGCA,0.249
23,AGTTACGG,-0.112
24,CTTCGCAC,-0.0139
25,TGGAACAA,0.0669

# Part of the list above, tab-delimited:
row	Sequence	PBM E-score
15	AGCCAATA	-0.00242
19	ACCAGGGG	-0.265
5	CCGCCCGA	0.012

# Next entries follow.

row,Sequence,PBM E-score
1,GTCTCATA,0.00039
2,CGTAGGGC,-0.255
3,AATTGACA,0.0691
4,CATAGAAG,0.0379
5,CAGCGGTA,0.126
6,ACGCCGCA,0.0104
7,TCCCTCCA,-0.323
8,AGCCTAGA,-0.255
9,GATAAATC,0.0808
10,ACGGGACT,-0.242
11,CAGTTACC,-0.0935
12,CGAGAGCC,-0.163
13,ACCTAAGT,0.135
14,ATTGTCAA,0.151
15,AACTAACC,0.201
16,GAAATGGC,-0.0366
17,AAAAGCGC,-0.0741
18,AGCTCGAA,0.00437
19,CAATGGCG,0.0527
20,TCGAGGCA,-0.0419
21,GTGCCGCA,-0.0966
22,TCATTCCA,-0.00828
23,TCGAATCA,0.0732
24,ACTCCTTA,-0.055
25,CATTCCTA,-0.0155

row,Sequence,PBM E-score
1,GCCCACAA,-0.17
2,ACGGCACC,-0.272
3,AAGTATAA,0.216
4,CAGCCGGA,0.188
5,AATACTGC,0.1
6,CAACCCGA,0.143
7,AAACTACC,0.0362
8,AGGAGTGA,-0.0352
9,ATTAATTA,0.259
10,ACGTGGCC,-0.243
11,CGTTTCGA,-0.148
12,ACGCGAAG,-0.0168
13,AAACACGG,-0.0665
14,AGAGGGGG,-0.456
15,ACATGGCA,-0.0603
16,ACATTGTG,0.0287
17,CAAGCACG,-0.0414
18,AACCCCAT,0.0967
19,GACTCCCC,-0.313
20,AACCCCAC,0.0386
21,GCGGCGTA,0.138
22,AAGAATGA,0.0772
